{
  "source": "patent US20230250139A1",
  "about": "(MIT, published 2023)",
  "binders": {"B1": {"name": "UBC-DHF40-Linker14-HA (protein)", "chain": "MSSEKEELRERLVKICVELAKLKGDDTLKAAEAAEEAFRLVVLAAMLAGIDSSEVLELAIRLIKTCVVLAAMEGYDISEACRAAAEAFTRVAMAALRAGITSSLVLKAAIELIKECVLNAAVEGYDISEACRAAAEAFKRVAEAAKRAGITSLETLLRAIEEIRKRVEEAQREGNDISEACRQAAEEFRKKAEELKRRGDVGGSGGTGGSGGTGYPYDVPDYA"}},
  "target": "UBC-DHF40-Linker14-HA",
  "test": "self-assembly in cultured mouse hippocampal neurons; anti-HA immunofluorescence, confocal",
  "note": "No constants are given. Whether binding was seen depends on the method and setting. Some binding calls cover weakened binding; strength is not graded here. Tags and fused reporters may be left off the sequences shown.",
  "data": [
    {"binder": "B1", "values": [
      {"measurement": "binding", "value": "binds"}
    ]}
  ]
}
